# Screen size: about 580,000 compounds; about 6,100 (1.1%) were called active. Inconclusive results, whose numbers are uncertain, are shown with a selection of clear calls. Calls come from the whole dose curve; as a rule, active = well fitted inhibition curve with a large enough effect; inconclusive = small, poorly fitted or top-dose-only effect, or another doubt; inactive = no such curve, though single readings can be large or run the other way. A potency beside an inconclusive call is a rough fit, not a confirmed value.
# Protein sequences, listed by entry. Tags and fused reporters are not part of them. Lines headed by an entry give the natural chain unless they say otherwise; changes in a name come on top.
# UniProt P18054: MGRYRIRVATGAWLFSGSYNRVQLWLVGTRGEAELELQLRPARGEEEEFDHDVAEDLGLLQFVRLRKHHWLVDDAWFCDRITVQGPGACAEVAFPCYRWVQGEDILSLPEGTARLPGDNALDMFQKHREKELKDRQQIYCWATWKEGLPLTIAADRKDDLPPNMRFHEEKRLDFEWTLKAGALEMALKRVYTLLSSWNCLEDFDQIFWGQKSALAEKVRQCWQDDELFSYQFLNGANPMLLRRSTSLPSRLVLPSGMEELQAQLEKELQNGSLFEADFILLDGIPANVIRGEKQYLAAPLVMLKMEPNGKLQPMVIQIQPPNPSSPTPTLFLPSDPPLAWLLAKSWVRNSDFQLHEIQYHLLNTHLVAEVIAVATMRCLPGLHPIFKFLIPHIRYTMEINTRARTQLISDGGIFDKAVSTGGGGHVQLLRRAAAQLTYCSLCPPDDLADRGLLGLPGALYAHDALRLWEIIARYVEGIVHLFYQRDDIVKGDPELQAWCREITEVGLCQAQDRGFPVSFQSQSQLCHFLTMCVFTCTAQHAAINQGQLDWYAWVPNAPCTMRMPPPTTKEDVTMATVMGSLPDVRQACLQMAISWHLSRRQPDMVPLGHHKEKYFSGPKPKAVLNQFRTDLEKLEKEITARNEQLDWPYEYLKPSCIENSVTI
# Molecular target: Polyunsaturated fatty acid lipoxygenase ALOX12 (Homo sapiens) (UniProt P18054)
# Test: Primary qHTS assay for inhibitors of human arachidonate 12S-lipoxygenase (ALOX12): Round 2
# Settings: purified 12hLO, xylenol orange hydroperoxide absorbance; series mostly up to 108 µM
# How it was run: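 Purified human 12hLO at 150 nM in 25 mM Hepes, 0.01% Triton X-100, pH 7.0, preincubated 15 min at room temperature with compound. Reaction started with 40 uM arachidonic acid, 30 min at room temperature. Hydroperoxide measured by Fe-xylenol orange, 573/405 nm absorbance ratio.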
# Potency is the fitted concentration of half-maximal effect.
row,SMILES,Potency
1,Cc1ccc(C(CNS(=O)(=O)c2ccc(Br)cc2)N2CCN(C)CC2)cc1 (stereo not drawn),"inconclusive: 28.2 µM [inhibitor, partial curve, poor fit]"
2,O=CN1CCCN(C(=O)CC2C(=O)NCCN2Cc2cccc(Oc3ccccc3)c2)CC1 (stereo not drawn),inactive
3,CCCCSc1nc2sc3c(c2c(=O)n1-c1ccc(OC)cc1)CCN(C)C3,"inconclusive: 7.08 µM [inhibitor, full curve, poor fit]"
4,O=C(Cn1nc(C(=O)O)c2ccccc2c1=O)Nc1cccc(Br)c1,"inconclusive: 56.2 µM [inhibitor, partial curve, poor fit]"
5,Cc1ccsc1/C=N/n1c(-c2cccnc2)n[nH]c1=S,"inconclusive: 39.8 µM [inhibitor, partial curve, poor fit]"
6,Cc1sc(/N=C/c2ccc(C(C)(C)C)cc2)c(C#N)c1C,inactive
7,CC(=O)NC(c1ccc(F)c(F)c1)c1nc(-c2ccccc2C)cs1 (stereo not drawn),"inconclusive: 31.6 µM [inhibitor, partial curve, poor fit]"
8,N#Cc1nc(COc2cccc(Cl)c2)oc1NCc1ccc2c(c1)OCO2,active: 12.6 µM
9,CSCCC1c2cccn2-c2ccccc2N1C=Nc1c(C)cccc1C (stereo not drawn),"inconclusive: 79.4 µM [inhibitor, single point]"
10,CCc1ccc(N(CC)C(=O)c2cc3c(=O)oc4ccc(C)cc4c3s2)cc1,"inconclusive: 50.1 µM [inhibitor, partial curve, poor fit]"
11,CC1CCN(S(=O)(=O)c2ccc(NC(=O)c3cc(=O)c4ccccc4o3)cc2)CC1,"inconclusive: 79.4 µM [inhibitor, single point]"
12,CCOC(=O)CCNC(=O)N1CCCC(C(=O)c2cc(C)c(OC)c(C)c2)C1 (stereo not drawn),"inconclusive: 112 µM [inhibitor, single point]"
13,CCC(=O)Nc1cccc(-c2cn3cccc(C)c3n2)c1,"inconclusive: 4.47 µM [inhibitor, full curve, poor fit]"
14,Cc1cccc(NC(=O)CSc2ccc(-c3ccccn3)nn2)c1,inactive
15,CCCNC(=O)NC(=O)CSc1cc(C)c2cccc(C)c2n1,inactive
16,COc1ccc(C2CC(=O)Oc3c(C(CCN4CCOCC4)c4cc(OC)c(OC)c(OC)c4)c(OC)cc(OC)c32)cc1 (stereo not drawn),"inconclusive: 100 µM [inhibitor, single point]"
17,Cc1c(NC(=S)Nc2ccccc2)c(=O)n(-c2ccccc2)n1C,"inconclusive: 12.6 µM [inhibitor, full curve, poor fit]"
18,CCN(c1ccccc1)S(=O)(=O)c1ccc(OC)c(NC(=O)c2ccco2)c1,inactive
